Measurements: article PMC12352907

Protein sequences, listed by entry. Tags and fused reporters are not part of them. Lines headed by an entry give the natural chain unless they say otherwise; changes in a name come on top.
UniProt O95477: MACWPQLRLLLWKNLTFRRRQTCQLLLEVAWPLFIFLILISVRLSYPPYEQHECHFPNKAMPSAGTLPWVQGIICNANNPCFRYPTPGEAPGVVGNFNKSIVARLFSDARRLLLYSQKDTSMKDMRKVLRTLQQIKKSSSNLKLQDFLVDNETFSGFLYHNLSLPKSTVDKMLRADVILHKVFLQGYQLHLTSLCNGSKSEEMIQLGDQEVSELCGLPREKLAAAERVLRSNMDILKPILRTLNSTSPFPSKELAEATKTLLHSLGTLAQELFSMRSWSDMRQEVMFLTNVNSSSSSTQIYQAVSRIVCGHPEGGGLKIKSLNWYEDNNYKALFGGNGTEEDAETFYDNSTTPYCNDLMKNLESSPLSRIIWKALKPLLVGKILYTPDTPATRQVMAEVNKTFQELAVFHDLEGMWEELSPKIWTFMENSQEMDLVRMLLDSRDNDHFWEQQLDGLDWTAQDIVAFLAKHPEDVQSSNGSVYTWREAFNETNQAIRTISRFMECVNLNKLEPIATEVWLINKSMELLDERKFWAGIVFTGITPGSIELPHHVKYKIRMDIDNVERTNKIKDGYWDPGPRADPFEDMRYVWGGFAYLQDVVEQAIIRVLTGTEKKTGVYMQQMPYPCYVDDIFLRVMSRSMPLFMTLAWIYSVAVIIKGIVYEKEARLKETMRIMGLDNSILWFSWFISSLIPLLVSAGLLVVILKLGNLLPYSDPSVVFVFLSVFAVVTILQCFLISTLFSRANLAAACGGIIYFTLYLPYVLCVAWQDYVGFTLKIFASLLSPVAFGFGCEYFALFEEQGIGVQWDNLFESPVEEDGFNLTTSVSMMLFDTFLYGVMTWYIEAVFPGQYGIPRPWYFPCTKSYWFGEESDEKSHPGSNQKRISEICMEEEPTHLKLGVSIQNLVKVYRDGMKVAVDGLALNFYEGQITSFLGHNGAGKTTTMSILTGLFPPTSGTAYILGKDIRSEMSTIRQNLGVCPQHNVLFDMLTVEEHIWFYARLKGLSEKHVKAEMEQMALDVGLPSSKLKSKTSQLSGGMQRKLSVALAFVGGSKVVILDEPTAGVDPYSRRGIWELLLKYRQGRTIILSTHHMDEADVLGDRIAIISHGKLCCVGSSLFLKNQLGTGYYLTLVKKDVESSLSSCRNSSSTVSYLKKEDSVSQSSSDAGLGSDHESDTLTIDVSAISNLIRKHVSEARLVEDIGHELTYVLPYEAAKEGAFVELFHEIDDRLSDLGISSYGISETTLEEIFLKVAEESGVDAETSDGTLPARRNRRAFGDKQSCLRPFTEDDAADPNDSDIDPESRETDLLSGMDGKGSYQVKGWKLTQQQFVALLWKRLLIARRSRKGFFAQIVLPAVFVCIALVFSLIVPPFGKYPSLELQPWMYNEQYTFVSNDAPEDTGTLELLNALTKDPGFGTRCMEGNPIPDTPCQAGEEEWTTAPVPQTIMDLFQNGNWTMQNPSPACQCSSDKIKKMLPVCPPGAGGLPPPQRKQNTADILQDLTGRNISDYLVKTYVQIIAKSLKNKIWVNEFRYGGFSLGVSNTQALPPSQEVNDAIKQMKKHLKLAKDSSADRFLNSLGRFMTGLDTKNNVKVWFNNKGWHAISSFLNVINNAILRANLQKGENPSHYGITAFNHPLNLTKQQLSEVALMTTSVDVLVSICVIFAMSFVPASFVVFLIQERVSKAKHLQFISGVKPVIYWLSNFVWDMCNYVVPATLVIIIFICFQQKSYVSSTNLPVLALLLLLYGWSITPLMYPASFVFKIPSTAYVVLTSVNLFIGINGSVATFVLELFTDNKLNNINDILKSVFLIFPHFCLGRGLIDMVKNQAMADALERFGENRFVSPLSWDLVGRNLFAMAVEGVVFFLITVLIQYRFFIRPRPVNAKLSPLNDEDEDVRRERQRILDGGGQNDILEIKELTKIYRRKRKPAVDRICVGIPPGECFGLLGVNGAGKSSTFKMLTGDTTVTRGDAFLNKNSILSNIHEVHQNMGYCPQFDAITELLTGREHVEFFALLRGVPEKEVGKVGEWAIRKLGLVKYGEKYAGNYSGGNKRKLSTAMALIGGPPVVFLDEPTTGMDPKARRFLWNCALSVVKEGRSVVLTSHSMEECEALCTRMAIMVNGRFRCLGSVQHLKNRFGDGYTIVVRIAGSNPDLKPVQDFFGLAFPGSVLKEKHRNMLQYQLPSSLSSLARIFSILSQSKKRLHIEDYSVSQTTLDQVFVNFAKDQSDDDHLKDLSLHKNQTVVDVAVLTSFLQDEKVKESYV
UniProt O94822: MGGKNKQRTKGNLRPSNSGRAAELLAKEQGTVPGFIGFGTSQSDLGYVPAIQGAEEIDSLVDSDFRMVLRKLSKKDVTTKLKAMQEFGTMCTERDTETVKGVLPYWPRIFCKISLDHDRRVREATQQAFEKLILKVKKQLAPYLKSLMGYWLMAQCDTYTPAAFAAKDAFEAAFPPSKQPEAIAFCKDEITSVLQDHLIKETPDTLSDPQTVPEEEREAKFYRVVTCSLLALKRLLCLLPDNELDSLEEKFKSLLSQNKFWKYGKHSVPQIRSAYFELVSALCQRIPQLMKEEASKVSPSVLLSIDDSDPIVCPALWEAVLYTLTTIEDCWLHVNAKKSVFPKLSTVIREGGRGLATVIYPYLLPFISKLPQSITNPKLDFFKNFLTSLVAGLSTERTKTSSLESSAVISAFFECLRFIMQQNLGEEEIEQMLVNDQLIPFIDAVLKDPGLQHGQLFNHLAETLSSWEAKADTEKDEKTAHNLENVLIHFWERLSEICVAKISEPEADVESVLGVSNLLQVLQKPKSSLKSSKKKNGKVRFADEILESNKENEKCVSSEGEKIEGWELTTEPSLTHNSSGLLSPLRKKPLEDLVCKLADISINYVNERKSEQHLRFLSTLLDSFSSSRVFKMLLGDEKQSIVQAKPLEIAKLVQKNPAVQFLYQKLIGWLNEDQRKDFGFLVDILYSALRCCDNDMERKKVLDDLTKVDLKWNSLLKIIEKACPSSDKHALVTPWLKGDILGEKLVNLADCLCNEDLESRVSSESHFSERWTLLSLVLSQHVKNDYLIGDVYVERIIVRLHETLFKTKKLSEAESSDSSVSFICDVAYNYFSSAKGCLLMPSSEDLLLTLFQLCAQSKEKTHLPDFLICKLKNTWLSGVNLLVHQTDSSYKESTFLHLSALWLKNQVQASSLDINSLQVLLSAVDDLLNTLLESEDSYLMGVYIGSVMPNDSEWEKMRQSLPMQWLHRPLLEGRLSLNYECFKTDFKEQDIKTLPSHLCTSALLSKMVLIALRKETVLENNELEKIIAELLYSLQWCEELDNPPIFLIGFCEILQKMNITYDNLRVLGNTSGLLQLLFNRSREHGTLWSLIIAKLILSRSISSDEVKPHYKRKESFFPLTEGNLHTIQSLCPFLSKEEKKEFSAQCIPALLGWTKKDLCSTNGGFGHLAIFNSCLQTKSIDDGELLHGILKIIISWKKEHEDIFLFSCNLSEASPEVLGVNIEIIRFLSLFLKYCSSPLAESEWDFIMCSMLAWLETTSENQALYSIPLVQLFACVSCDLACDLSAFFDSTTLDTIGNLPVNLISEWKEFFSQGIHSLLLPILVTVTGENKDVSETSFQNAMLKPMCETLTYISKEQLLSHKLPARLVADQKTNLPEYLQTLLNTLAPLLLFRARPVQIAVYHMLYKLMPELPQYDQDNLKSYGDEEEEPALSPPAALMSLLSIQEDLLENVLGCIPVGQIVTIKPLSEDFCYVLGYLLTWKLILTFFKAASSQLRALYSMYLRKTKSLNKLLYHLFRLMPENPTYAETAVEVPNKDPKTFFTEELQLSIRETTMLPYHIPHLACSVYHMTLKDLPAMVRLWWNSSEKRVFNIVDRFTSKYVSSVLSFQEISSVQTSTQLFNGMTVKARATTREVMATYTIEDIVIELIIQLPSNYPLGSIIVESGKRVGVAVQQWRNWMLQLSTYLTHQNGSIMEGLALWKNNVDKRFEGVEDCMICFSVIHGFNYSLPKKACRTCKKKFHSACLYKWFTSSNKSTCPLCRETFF

Target: GFP-ABCA1-ΔNRNR (human) (UniProt O95477)
Assay: co-IP; HEK293T cells co-expressing Flag-Listerin with GFP-ABCA1 (WT or truncation mutants), Myc-ABCG1 or Myc-SRB1

- binding: binds weakly
Substance: Flag-Listerin (from UniProt O94822 1-1766) (enzyme)

No constants are given. Whether binding was seen depends on the method and setting. Binding seen in cells or lysates may run through a third protein. Binding calls can cover weak binding; strength is not graded here.
